Source: patent publication US20210179680A1, “POLYPEPTIDE, DERIVATIVES THEREOF, AND APPLICATION THEREOF IN PREPARATION OF DRUGS HAVING RESISTANCE TO PULMONARY FIBROSIS” (priority 2016, published 2021)
Some entries share one result that the patent states for a list of compounds. Bridge positions count the residues as written; N and C are the ends. Square brackets hold non-standard residues; d marks the D form. Peptide text beside a SMILES is read from it. S5 = C=CCCC[C@](C)(N)C(=O)O

test system: mice with bleomycin-induced pulmonary fibrosis; experiment: Hydroxyproline content in lung of mice with pulmonary fibrosis; type: in vivo, C57BL/6 mice; conditions: Table 3 groups, 2 mg/kg i.p.; versus bleomycin group
Method: Male C57BL/6 mice were fasted overnight, then anesthetized with 45 mg/kg sodium pentobarbital by injection intraperitoneally (i.p.), and intratracheally injected with bleomycin at a dose of 3 U/kg. The specific operation steps are as follows: cut the neck skin of the mouse with as little trauma as possible, expose the trachea with the assistance of elbow ophthalmic forceps, puncture the trachea and inject about 50 μL of bleomycin into the trachea with a microsyringe, rotate the mouse quickly and stand it upright for 5 minutes in order to make bleomycin evenly enter the left and right lobe, thereby constructing an animal model. The whole operation was performed at a surgical table at about […]. Mice in the sham operation group were intratracheally injected with an equal amount of physiological saline for injection.
(§1) Hydroxyproline accounts for 13.4% (w/w) of collagen, and extremely small amount of elastin, while it is absent in other proteins. […] Pulmonary fibrosis models were prepared according to the method described in Example 2 and administered in groups according to Table 3. The content of hydroxyproline in the lobes of left lung of the animals was measured 28 days later, and the condition of pulmonary fibrosis was evaluated.
The specific method is as follows: the mice in the animal model prepared in Example 2 was feed in a SPF animal room and treated with polypeptide according to the dosing schedule of Table 3, and all left lobes of lung of the experimental animal was taken on the 21st day after the animal model was constructed and the wet weight was recorded. Then 10% (w/w) tissue homogenate was prepared by ultrasonic homogenization using physiological saline. About 150 μL of homogenate supernatant was taken, and 500 μL of alkali hydrolysate was added (provided by Hydroxyproline alkaline hydrolysis kit of Nanjing Jiancheng Bioengineering Technology Co., Ltd.). After vortex mixing, the mixture was treated with alkaline hydrolysis for 40 min under conditions of 120° C., 0.1 Kpa. After adjusting the pH value, the volume was held constant, and the supernatant was taken after performing activated carbon treatment. The hydroxyproline was determined according to the chloramine-T method (the method of the present example refers to the instruction provided with kit, which was purchased from Nanjing Jiancheng Bioengineering Technology Co., Ltd.). […] In FIG. 10, “##” represents that P value is less than 0.01 when comparing the content of hydroxyproline in the administration group with that in the sham operation group; and “*” represents that P value is less than 0.05 and“**” represents that P value is less than 0.01 when comparing the content of hydroxyproline in the administration group with that in bleomycin group.
as §1, with “collagen, and accounts for extremely small” for “collagen, and extremely small”, “in the all lobes of” for “in the lobes of”
The specific method is as follows: the mice in the animal model prepared in Example 2 was feed in an SPF animal room and treated with polypeptide according to the dosing schedule of Table 3, and all the left lobes of lung of the experimental animal was taken on the 21st day after the animal model was constructed and the wet weight was recorded. Then 10% (w/w) tissue homogenate was prepared by ultrasonic homogenization using physiological saline. About 150 μL of homogenate supernatant was taken, and 500 μL of alkali hydrolysate was added (provided by Hydroxyproline alkaline hydrolysis kit of Nanjing Jiancheng Bioengineering Technology Co., Ltd.). After vortex mixing, the mixture was treated with alkaline hydrolysis for 40 min under conditions of 120° C., 0.1 Kpa. […]

Row | Compound | content of hydroxyproline in the lungs (in words)
1 | CSCC[C@H](NC(=O)[C@H](CC(C)C)NC(=O)[C@@H](N)Cc1c[nH]cn1)C(=O)N[C@@H](C)C(=O)N[C@@H](CS)C(=O)N[C@@H](Cc1ccccc1)C(=O)N[C@H](C(=O)N[C@@H](CS)C(=O)N[C@@H](C)C(=O)N[C@@]1(C)CCCC=CCCC[C@@](C)(C(=O)N[C@@H](CCCNC(=N)N)C(=O)O)NC(=O)[C@H](CCCCN)NC(=O)[C@H](CC(C)C)NC(=O)[C@H](CCCCN)NC1=O)[C@@H](C)O [S10, His-Leu-Met-Ala-Cys-Phe-Thr-Cys-Ala-S5-Lys-Leu-Lys-S5-Arg] (H-HLMACFTCA[S5]KLK[S5]R-OH; staple 10-14; N-terminus and C-terminus assumed) | significantly reduce the content of hydroxyproline
2 | CSCC[C@@H]1NC(=O)[C@H](CC(C)C)NC(=O)[C@@](C)(N)CCCC=CCCC[C@@](C)(C(=O)N[C@@H](Cc2ccccc2)C(=O)N[C@H](C(=O)N[C@@H](CS)C(=O)N[C@@H](C)C(=O)N[C@@H](CCCCN)C(=O)N[C@@H](CCCCN)C(=O)N[C@@H](CC(C)C)C(=O)N[C@@H](CCCCN)C(=O)N[C@@H](CCCCN)C(=O)N[C@@H](CCCNC(=N)N)C(=O)O)[C@@H](C)O)NC(=O)[C@H](C)NC1=O [S1, S5-Leu-Met-Ala-S5-Phe-Thr-Cys-Ala-Lys-Lys-Leu-Lys-Lys-Arg] (H-[S5]LMA[S5]FTCAKKLKKR-OH; staple 1-5; N-terminus and C-terminus assumed) | significantly reduce the content of hydroxyproline
3 | CSCC[C@H](NC(=O)[C@H](CC(C)C)NC(=O)[C@@H](N)Cc1c[nH]cn1)C(=O)N[C@@H](C)C(=O)N[C@@]1(C)CCCC=CCCC[C@@](C)(C(=O)N[C@@H](CCCCN)C(=O)N[C@@H](CCCCN)C(=O)N[C@@H](CC(C)C)C(=O)N[C@@H](CCCCN)C(=O)N[C@@H](CCCCN)C(=O)N[C@@H](CCCNC(=N)N)C(=O)O)NC(=O)[C@H](CS)NC(=O)[C@H]([C@@H](C)O)NC(=O)[C@H](Cc2ccccc2)NC1=O [S5, His-Leu-Met-Ala-S5-Phe-Thr-Cys-S5-Lys-Lys-Leu-Lys-Lys-Arg] (H-HLMA[S5]FTC[S5]KKLKKR-OH; staple 5-9; N-terminus and C-terminus assumed) | significantly reduce the content of hydroxyproline
4 | CSCC[C@H](NC(=O)[C@H](CC(C)C)NC(=O)[C@@H](N)Cc1c[nH]cn1)C(=O)N[C@@H](C)C(=O)N[C@@H](CS)C(=O)N[C@@H](Cc1ccccc1)C(=O)N[C@H](C(=O)N[C@@H](CS)C(=O)N[C@@H](C)C(=O)N[C@@H](CCCCN)C(=O)N[C@@]1(C)CCCC=CCCC[C@@](C)(C(=O)O)NC(=O)[C@H](CCCCN)NC(=O)[C@H](CCCCN)NC(=O)[C@H](CC(C)C)NC1=O)[C@@H](C)O [S11, His-Leu-Met-Ala-Cys-Phe-Thr-Cys-Ala-Lys-S5-Leu-Lys-Lys-S5] (H-HLMACFTCAK[S5]LKK[S5]-OH; staple 11-15; N-terminus and C-terminus assumed) | significantly reduce the content of hydroxyproline
5 | CSCC[C@H](NC(=O)[C@H](CC(C)C)NC(=O)[C@@H](N)Cc1c[nH]cn1)C(=O)N[C@@H](C)C(=O)N[C@@H](CS)C(=O)N[C@@H](Cc1ccccc1)C(=O)N[C@H](C(=O)N[C@@]1(C)CCCC=CCCC[C@@](C)(C(=O)N[C@@H](CCCCN)C(=O)N[C@@H](CCCCN)C(=O)N[C@@H](CCCNC(=N)N)C(=O)O)NC(=O)[C@H](CCCCN)NC(=O)[C@H](CCCCN)NC(=O)[C@H](C)NC1=O)[C@@H](C)O [S8, His-Leu-Met-Ala-Cys-Phe-Thr-S5-Ala-Lys-Lys-S5-Lys-Lys-Arg] (H-HLMACFT[S5]AKK[S5]KKR-OH; staple 8-12; N-terminus and C-terminus assumed) | significantly reduce the content of hydroxyproline
6 | CSCC[C@@H]1NC(=O)[C@@](C)(NC(=O)[C@@H](N)Cc2c[nH]cn2)CCCC=CCCC[C@@](C)(C(=O)N[C@H](C(=O)N[C@@H](CS)C(=O)N[C@@H](C)C(=O)N[C@@H](CCCCN)C(=O)N[C@@H](CCCCN)C(=O)N[C@@H](CC(C)C)C(=O)N[C@@H](CCCCN)C(=O)N[C@@H](CCCCN)C(=O)N[C@@H](CCCNC(=N)N)C(=O)O)[C@@H](C)O)NC(=O)[C@H](CS)NC(=O)[C@H](C)NC1=O [S2, His-S5-Met-Ala-Cys-S5-Thr-Cys-Ala-Lys-Lys-Leu-Lys-Lys-Arg] (H-H[S5]MAC[S5]TCAKKLKKR-OH; staple 2-6; N-terminus and C-terminus assumed) | significantly reduce the content of hydroxyproline
7 | CSCC[C@H](NC(=O)[C@H](CC(C)C)NC(=O)[C@@H](N)Cc1c[nH]cn1)C(=O)N[C@@]1(C)CCCC=CCCC[C@@](C)(C(=O)N[C@@H](C)C(=O)N[C@@H](CCCCN)C(=O)N[C@@H](CCCCN)C(=O)N[C@@H](CC(C)C)C(=O)N[C@@H](CCCCN)C(=O)N[C@@H](CCCCN)C(=O)N[C@@H](CCCNC(=N)N)C(=O)O)NC(=O)[C@H]([C@@H](C)O)NC(=O)[C@H](Cc2ccccc2)NC(=O)[C@H](CS)NC1=O [S4, His-Leu-Met-S5-Cys-Phe-Thr-S5-Ala-Lys-Lys-Leu-Lys-Lys-Arg] (H-HLM[S5]CFT[S5]AKKLKKR-OH; staple 4-8; N-terminus and C-terminus assumed) | significantly reduce the content of hydroxyproline
8 | CC(C)C[C@H](NC(=O)[C@H](CCCCN)NC(=O)[C@H](CCCCN)NC(=O)[C@H](C)NC(=O)[C@H](CS)NC(=O)[C@]1(C)CCCC=CCCC[C@](C)(NC(=O)[C@H](CC(C)C)NC(=O)[C@@H](N)Cc2c[nH]cn2)C(=O)N[C@@H](C)C(=O)N[C@@H](CS)C(=O)N[C@@H](Cc2ccccc2)C(=O)N1)C(=O)N[C@@H](CCCCN)C(=O)N[C@@H](CCCCN)C(=O)N[C@@H](CCCNC(=N)N)C(=O)O [S3, His-Leu-S5-Ala-Cys-Phe-S5-Cys-Ala-Lys-Lys-Leu-Lys-Lys-Arg] (H-HL[S5]ACF[S5]CAKKLKKR-OH; staple 3-7; N-terminus and C-terminus assumed) | significantly reduce the content of hydroxyproline
9 | CSCC[C@H](NC(=O)[C@H](CC(C)C)NC(=O)[C@@H](N)Cc1c[nH]cn1)C(=O)N[C@@H](C)C(=O)N[C@@H](CS)C(=O)N[C@@]1(C)CCCC=CCCC[C@@](C)(C(=O)N[C@@H](CCCCN)C(=O)N[C@@H](CC(C)C)C(=O)N[C@@H](CCCCN)C(=O)N[C@@H](CCCCN)C(=O)N[C@@H](CCCNC(=N)N)C(=O)O)NC(=O)[C@H](C)NC(=O)[C@H](CS)NC(=O)[C@H]([C@@H](C)O)NC1=O [S6, His-Leu-Met-Ala-Cys-S5-Thr-Cys-Ala-S5-Lys-Leu-Lys-Lys-Arg] (H-HLMAC[S5]TCA[S5]KLKKR-OH; staple 6-10; N-terminus and C-terminus assumed) | significantly reduce the content of hydroxyproline
10 | CSCC[C@H](NC(=O)[C@H](CC(C)C)NC(=O)[C@@H](N)Cc1c[nH]cn1)C(=O)N[C@@H](C)C(=O)N[C@@H](CS)C(=O)N[C@@H](Cc1ccccc1)C(=O)N[C@@]1(C)CCCC=CCCC[C@@](C)(C(=O)N[C@@H](CC(C)C)C(=O)N[C@@H](CCCCN)C(=O)N[C@@H](CCCCN)C(=O)N[C@@H](CCCNC(=N)N)C(=O)O)NC(=O)[C@H](CCCCN)NC(=O)[C@H](C)NC(=O)[C@H](CS)NC1=O [S7, His-Leu-Met-Ala-Cys-Phe-S5-Cys-Ala-Lys-S5-Leu-Lys-Lys-Arg] (H-HLMACF[S5]CAK[S5]LKKR-OH; staple 7-11; N-terminus and C-terminus assumed) | significantly reduce the content of hydroxyproline
11 | CSCC[C@H](NC(=O)[C@H](CC(C)C)NC(=O)[C@@H](N)Cc1c[nH]cn1)C(=O)N[C@@H](C)C(=O)N[C@@H](CS)C(=O)N[C@@H](Cc1ccccc1)C(=O)N[C@H](C(=O)N[C@@H](CS)C(=O)N[C@@]1(C)CCCC=CCCC[C@@](C)(C(=O)N[C@@H](CCCCN)C(=O)N[C@@H](CCCNC(=N)N)C(=O)O)NC(=O)[C@H](CC(C)C)NC(=O)[C@H](CCCCN)NC(=O)[C@H](CCCCN)NC1=O)[C@@H](C)O [S9, His-Leu-Met-Ala-Cys-Phe-Thr-Cys-S5-Lys-Lys-Leu-S5-Lys-Arg] (H-HLMACFTC[S5]KKL[S5]KR-OH; staple 9-13; N-terminus and C-terminus assumed) | significantly reduce the content of hydroxyproline
